In patent US20100120685A1:
These are yes or no findings as the source states them, for the method shown. Some results given as binding are weak or reduced against the parent protein; the word gives no strength.

The chains behind the UniProt entries cited, without tags or fusion partners. Residues count along the entry.
UniProt O75197, residues 32-1615: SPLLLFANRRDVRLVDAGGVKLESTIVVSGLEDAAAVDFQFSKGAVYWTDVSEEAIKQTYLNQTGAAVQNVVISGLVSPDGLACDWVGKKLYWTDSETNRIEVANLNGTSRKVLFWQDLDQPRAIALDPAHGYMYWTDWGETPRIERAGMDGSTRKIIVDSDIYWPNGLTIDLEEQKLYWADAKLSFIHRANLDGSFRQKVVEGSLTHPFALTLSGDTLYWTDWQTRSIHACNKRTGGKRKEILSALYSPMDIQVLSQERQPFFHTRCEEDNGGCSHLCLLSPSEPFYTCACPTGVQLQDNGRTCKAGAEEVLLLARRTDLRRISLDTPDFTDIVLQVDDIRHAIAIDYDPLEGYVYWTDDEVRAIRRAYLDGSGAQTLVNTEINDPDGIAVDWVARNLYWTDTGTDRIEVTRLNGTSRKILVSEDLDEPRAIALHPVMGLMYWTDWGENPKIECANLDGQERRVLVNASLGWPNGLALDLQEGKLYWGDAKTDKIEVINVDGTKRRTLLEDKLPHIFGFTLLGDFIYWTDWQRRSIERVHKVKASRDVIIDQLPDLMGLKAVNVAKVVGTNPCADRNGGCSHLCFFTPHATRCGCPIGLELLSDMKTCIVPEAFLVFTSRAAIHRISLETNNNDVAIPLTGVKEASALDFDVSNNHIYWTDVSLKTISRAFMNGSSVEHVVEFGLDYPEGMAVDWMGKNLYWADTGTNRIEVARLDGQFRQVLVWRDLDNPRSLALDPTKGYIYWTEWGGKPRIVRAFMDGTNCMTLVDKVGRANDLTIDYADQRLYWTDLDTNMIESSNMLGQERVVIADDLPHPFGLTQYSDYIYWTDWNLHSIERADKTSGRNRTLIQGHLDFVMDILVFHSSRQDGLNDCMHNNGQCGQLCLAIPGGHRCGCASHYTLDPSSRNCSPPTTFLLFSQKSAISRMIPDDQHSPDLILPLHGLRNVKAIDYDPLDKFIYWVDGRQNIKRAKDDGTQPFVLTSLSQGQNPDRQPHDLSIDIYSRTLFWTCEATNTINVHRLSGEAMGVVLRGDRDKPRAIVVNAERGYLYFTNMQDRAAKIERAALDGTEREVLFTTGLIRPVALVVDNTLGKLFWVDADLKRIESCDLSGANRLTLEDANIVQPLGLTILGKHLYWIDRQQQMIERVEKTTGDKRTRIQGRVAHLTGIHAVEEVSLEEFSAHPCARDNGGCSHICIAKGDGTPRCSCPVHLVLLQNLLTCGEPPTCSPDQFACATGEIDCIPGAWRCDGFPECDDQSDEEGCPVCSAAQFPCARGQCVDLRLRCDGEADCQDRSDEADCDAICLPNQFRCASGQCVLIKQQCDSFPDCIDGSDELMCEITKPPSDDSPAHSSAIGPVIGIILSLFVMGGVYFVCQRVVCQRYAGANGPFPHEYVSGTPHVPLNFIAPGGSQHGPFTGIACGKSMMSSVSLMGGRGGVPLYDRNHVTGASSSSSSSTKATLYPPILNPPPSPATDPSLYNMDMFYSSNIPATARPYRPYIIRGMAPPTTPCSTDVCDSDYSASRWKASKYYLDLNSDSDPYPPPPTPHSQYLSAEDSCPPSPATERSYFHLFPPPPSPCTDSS

How the values were obtained:
[1] = molecular target: LRP5 (as used in Example 11) (UniProt O75197); test: legend of FIG. 10
[2] = molecular target: LRP5 (as used in Example 11) (UniProt O75197); test: summary of Example 11

Q: For KGGGSKEKNKTKPEKAKKKEGDPKPRASKEDNRAGSR [Mesd oligopeptide …], which binding [1] is on record?
A: Its binding is “binds”.

Q: What about the binding [2] of the same binder?
A: The binding was “binds”.
